This note sets out measurements from patent publication US20170137467A1.

Test [1] has as its target T1, GFP with C-terminal BC2T-10 tag (GFPBC2T-10) (human).
T1 sequence: PDRKAAVSHW
The test can be described thus: pulldown from E. coli lysate, immunoblot with anti-GFP.

The target of test [2] is T2, GFP with C-terminal BC2T-8 tag (GFPBC2T-8) (human).
T2 sequence: RKAAVSHW
The description is as above.

For test [3], the target named is T1, GFP with C-terminal BC2T-10 tag (GFPBC2T-10) (human). Briefly: immunoprecipitation from E. coli lysate, Western blot with anti-GFP, FIG. 12.
For test [4], the target named is T2, GFP with C-terminal BC2T-8 tag (GFPBC2T-8) (human). The test is described as above.
In test [5] the target is T3, BC2T A6S peptide (BC2TA6X library) (human).
T3 sequence (peptide, N-terminal acetyl, C-terminal amide): PDRKASVSHWQQ
The test can be described thus: positional scanning library pulldown with immobilized Nb, LC-MS of the supernatant.

The target in test [6] is T4, BC2T A6T peptide (BC2TA6X library) (human).
T4 sequence (peptide, N-terminal acetyl, C-terminal amide): PDRKATVSHWQQ
Described as above.

Test [7] concerns the target T5, BC2T A6V peptide (BC2TA6X library) (human).
T5 sequence (peptide, N-terminal acetyl, C-terminal amide): PDRKAVVSHWQQ
The description is as above.

The target in test [8] is T6, BC2T R3H peptide (BC2TR3X library) (human).
T6 sequence (peptide, N-terminal acetyl, C-terminal amide): PDHKAAVSHWQQ
The test is described as above.

Test [9] has as its target T7, BC2T R3K peptide (BC2TR3X library) (human).
T7 sequence (peptide, N-terminal acetyl, C-terminal amide): PDKKAAVSHWQQ
Described as above.

The target of test [10] is T8, BC2T R3T peptide (BC2TR3X library) (human).
T8 sequence (peptide, N-terminal acetyl, C-terminal amide): PDTKAAVSHWQQ
The test is described as above.

In test [11] the target is T9, BC2T R3V peptide (BC2TR3X library) (human).
T9 sequence (peptide, N-terminal acetyl, C-terminal amide): PDVKAAVSHWQQ
Described as above.

The target of test [12] is T10, BC2T S8A peptide (BC2TS8X library) (human).
T10 sequence (peptide, N-terminal acetyl, C-terminal amide): PDRKAAVAHWQQ
The test is described as above.

Test [13] addresses T11, BC2T S8T peptide (BC2TS8X library) (human).
T11 sequence (peptide, N-terminal acetyl, C-terminal amide): PDRKAAVTHWQQ
The test is described as above.

Test [14] deals with T12, BC2T S8V peptide (BC2TS8X library) (human).
T12 sequence (peptide, N-terminal acetyl, C-terminal amide): PDRKAAVVHWQQ
Described as above.

The target of test [15] is T13, neg CTR.
T13 sequence (peptide): EQKLISEEDL
The test can be described thus: pepscan: Myc-peptide on OVA-microspheres as negative control, biotinylated BC2-Nb, streptavidin-PE.

Results are given in words; binding and its absence hold for the method and conditions named. For part of these data: In cells and extracts the contact can be indirect. Some results given as binding are weak or reduced against the parent protein; the word gives no strength. For part of these data: Sequences can lack the tags named with a protein.

B1: BC2 nanobody (VHH, not shown: small tags and cut ends)
VHH: QVQLVESGGGLVQPGGSLTLSCTASGFTLDHYDIGWFRQAPGKEREGVSCINNSDDDTYYADSVKGRFTIFMDNAKDTVYLQMNSLKPEDTAIYYCAEARGCKRGRYEYDFWGQGTQVTVSS
Regarding B1, the binding entry in test [1], in [2], in [3], in test [4], in test [5] and in test [6] was “binds” each time. The binding result in [7], in [8], in test [9], in test [10], in test [11] and in test [12] was “binds” in each case. Besides, the binding result in [13] is given as “binds”; in [14], “binds”; in test [15] it was “no binding (tested: 1 µg/ml BC2-Nb)”.
